No constants are given. Whether binding was seen depends on the method and setting. Some entries that bind do so weakly or less than the wild type.
Target: soluble human type I IL-1R (human) (UniProt P14778)
Assay: Affinity chromatography on immobilised receptor; eluted at low pH

Chains of the proteins cited; added tags and fusions are not shown. Lines headed by an entry give the natural chain unless they say otherwise; changes in a name come on top. Residues count along the entry.
UniProt P14778: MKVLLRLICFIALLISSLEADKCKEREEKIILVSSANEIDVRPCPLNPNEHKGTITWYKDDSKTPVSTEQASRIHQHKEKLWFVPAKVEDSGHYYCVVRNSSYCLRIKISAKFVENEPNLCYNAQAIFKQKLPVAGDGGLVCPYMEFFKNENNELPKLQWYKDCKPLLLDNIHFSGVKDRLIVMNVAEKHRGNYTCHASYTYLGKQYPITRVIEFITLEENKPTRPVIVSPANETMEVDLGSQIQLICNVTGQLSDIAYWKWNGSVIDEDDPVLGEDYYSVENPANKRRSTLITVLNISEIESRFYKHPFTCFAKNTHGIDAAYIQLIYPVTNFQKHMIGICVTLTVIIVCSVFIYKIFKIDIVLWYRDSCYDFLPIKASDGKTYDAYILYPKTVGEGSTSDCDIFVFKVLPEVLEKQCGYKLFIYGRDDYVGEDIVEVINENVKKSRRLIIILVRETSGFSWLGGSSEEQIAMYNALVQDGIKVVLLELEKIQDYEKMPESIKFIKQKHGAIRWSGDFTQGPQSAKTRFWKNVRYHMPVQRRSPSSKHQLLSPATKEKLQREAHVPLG
UniProt P18510, residues 26-177: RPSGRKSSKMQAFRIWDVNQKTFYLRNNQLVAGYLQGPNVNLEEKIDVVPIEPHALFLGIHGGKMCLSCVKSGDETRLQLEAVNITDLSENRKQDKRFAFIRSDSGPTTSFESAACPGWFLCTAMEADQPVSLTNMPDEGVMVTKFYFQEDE

- binding: binds
Substance: recombinant human IL-1 receptor antagonist (IL-1ra) (from UniProt P18510 26-177) (ligand)
